Source: article PMC12434083

Legend:
[1] = biological target: SigA-TS (housekeeping sigma factor SigA with a C-terminal Twin-Strep-tag) (Bacillus subtilis) (UniProt P06224); test: affinity purification with mass spectrometry; TIE-UP-SIN: 14N/15N metabolic labelling, in vivo cross-linking with 0.2% or 0.4% (w/v) formaldehyde (15 min, 37°C), pellets mixed before lysis (WT/WT, Bait/WT, Bait/Bait), SigA-TS captured by its Twin-Strep-tag on MagStrep Strep-Tactin XT beads (20 mM HEPES pH 8, 1% Tween20, 1 h, room temperature), eluted with 100 mM biotin, cross-links reversed (95°C, 2 h), DIA LC-MS/MS, light/heavy ratios; cells in exponential growth or 10 min after 4% (v/v) ethanol; eluates also checked by Western blot (Strep-Tactin conjugate) and silver gel
[2] = biological target: SigA-TS (housekeeping sigma factor SigA with a C-terminal Twin-Strep-tag) (Bacillus subtilis) (UniProt P06224); test: as above; remark: listed apart in the source

Molecule: ClpX, the ATPase subunit of the ATP-dependent ClpXP protease (from UniProt P50866 1-420)
binding [1]: binds

B3: AcpA, the acyl carrier protein (protein, UniProt P80643 1-77)
chain: MADTLERVTKIIVDRLGVDEADVKLEASFKEDLGADSLDVVELVMELEDEFDMEISDEDAEKIATVGDAVNYIQNQQ
binding [2]: binds

The remaining lines, values ahead:

binding [1]: no binding
Molecule: PurA (from UniProt P29726 1-430)

binding [2]: binds
B1: Spo0M (protein, UniProt P71088 1-258)
chain: MSFFKKLAASAGIGAAKVDTILEKDAYFPGEEVQGTVHVKGGKIAQDIRYIDLQLSTRYVIVKDDEEHRKYATIHSFRVTGSFTIQPGEEHQFPFTFTLPLDTPITVGKVEVAVVTDLDIQGGIDKSDHDRIFVEAHPWIENVLEAIENLGFRLNEADCEQAPYFQRRLPFVQEFEFVPTSGYYRQMLDELELIFLLDEDGLEIIFEVDRRARGLRGWLEEMYNDGEQLVRVRFSQSELEDTEELEEVLEEILDQYAE

binding [2]: no binding
B2: pyruvate carboxylase (PycA) (protein, UniProt Q9KWU4 1-1148)
chain: MSQQSIQKVLVANRGEIAIRIFRACTELNIRTVAVYSKEDSGSYHRYKADEAYLVGEGKKPIDAYLDIEGIIDIAKRNKVDAIHPGYGFLSENIHFARRCEEEGIVFIGPKSEHLDMFGDKVKAREQAEKAGIPVIPGSDGPAETLEAVEQFGQANGYPIIIKASLGGGGRGMRIVRSESEVKEAYERAKSEAKAAFGNDEVYVEKLIENPKHIEVQVIGDKQGNVVHLFERDCSVQRRHQKVIEVAPSVSLSPELRDQICEAAVALAKNVNYINAGTVEFLVANNEFYFIEVNPRVQVEHTITEMITGVDIVQTQILVAQGHSLHSKKVNIPEQKDIFTIGYAIQSRVTTEDPQNDFMPDTGKIMAYRSGGGFGVRLDTGNSFQGAVITPYYDSLLVKLSTWALTFEQAAAKMVRNLQEFRIRGIKTNIPFLENVAKHEKFLTGQYDTSFIDTTPELFNFPKQKDRGTKMLTYIGNVTVNGFPGIGKKEKPAFDKPLGVKVDVDQQPARGTKQILDEKGAEGLANWVKEQKSVLLTDTTFRDAHQSLLATRIRSHDLKKIANPTAALWPELFSMEMWGGATFDVAYRFLKEDPWKRLEDLRKEVPNTLFQMLLRSSNAVGYTNYPDNVIKEFVKQSAQSGIDVFRIFDSLNWVKGMTLAIDAVRDTGKVAEAAICYTGDILDKNRTKYDLAYYTSMAKELEAAGAHILGIKDMAGLLKPQAAYELVSALKETIDIPVHLHTHDTSGNGIYMYAKAVEAGVDIIDVAVSSMAGLTSQPSASGFYHAMEGNDRRPEMNVQGVELLSQYWESVRKYYSEFESGMKSPHTEIYEHEMPGGQYSNLQQQAKGVGLGDRWNEVKEMYRRVNDMFGDIVKVTPSSKVVGDMALYMVQNNLTEKDVYEKGESLDFPDSVVELFKGNIGQPHGGFPEKLQKLILKGQEPITVRPGELLEPVSFEAIKQEFKEQHNLEISDQDAVAYALYPKVFTDYVKTTESYGDISVLDTPTFFYGMTLGEEIEVEIERGKTLIVKLISIGEPQPDATRVVYFELNGQPREVVIKDESIKSSVQERLKADRTNPSHIAASMPGTVIKVLAEAGTKVNKGDHLMINEAMKMETTVQAPFSGTIKQVHVKNGEPIQTGDLLLEIEKA
modifications: biotinylated (site not given)

Read-outs that look alike come from different tables or passages of the source. No constants are given. Whether binding was seen depends on the method and setting. In cells and extracts the contact can be indirect. These calls come from enrichment with a bait or labelling near it, and not all partners need be listed. No binding means not detected with the bait. One block for each molecule: values may come before it.
